Earlier results in US20230255987A1, “AQUEOUS PHARMACEUTICAL COMPOSITION COMPRISING A P2Y12 RECEPTOR ANTAGONIST” (Idorsia Pharmaceuticals Ltd, priority 2020, published 2023).
Some of these results come from one statement about several compounds together.

Test system: platelet function
Details: oral administration; cited from earlier work

| Structure (SMILES) | time to inhibit platelet function |
| --- | --- |
| CCCSc1nc(N[C@@H]2C[C@H]2c2ccc(F)c(F)c2)c2nnn([C@@H]3C[C@H](OCCO)[C@@H](O)[C@H]3O)c2n1 [ticagrelor] | less than 1 hour |
| CC(=O)Oc1cc2c(s1)CCN(C(C(=O)C1CC1)c1ccccc1F)C2 (centres unmarked) [prasugrel] | less than 1 hour |
